Experimental findings from PMC1599745 are described below.

The chains behind the UniProt entries cited, without tags or fusion partners.
UniProt P50750: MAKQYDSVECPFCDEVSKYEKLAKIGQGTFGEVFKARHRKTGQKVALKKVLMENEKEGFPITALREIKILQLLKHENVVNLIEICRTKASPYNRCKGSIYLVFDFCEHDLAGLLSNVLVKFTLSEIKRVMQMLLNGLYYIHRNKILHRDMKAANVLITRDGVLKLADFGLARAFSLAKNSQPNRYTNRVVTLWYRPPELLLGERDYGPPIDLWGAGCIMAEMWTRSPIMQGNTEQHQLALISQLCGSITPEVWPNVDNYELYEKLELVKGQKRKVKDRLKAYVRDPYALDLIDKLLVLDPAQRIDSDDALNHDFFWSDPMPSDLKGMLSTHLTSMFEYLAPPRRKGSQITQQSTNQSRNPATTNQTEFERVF
UniProt O94992: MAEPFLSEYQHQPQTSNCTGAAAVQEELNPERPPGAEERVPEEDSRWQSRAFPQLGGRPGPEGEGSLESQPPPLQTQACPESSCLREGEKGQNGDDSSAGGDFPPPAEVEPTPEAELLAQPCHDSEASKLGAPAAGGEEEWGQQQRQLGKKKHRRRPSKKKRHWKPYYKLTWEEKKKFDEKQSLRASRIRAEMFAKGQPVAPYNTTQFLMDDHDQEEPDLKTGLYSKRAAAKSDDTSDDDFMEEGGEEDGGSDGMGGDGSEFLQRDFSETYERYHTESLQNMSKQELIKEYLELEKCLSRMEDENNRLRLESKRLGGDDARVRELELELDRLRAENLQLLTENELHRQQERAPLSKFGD

These are yes or no findings as the source states them, for the method shown. Binding seen in cells or lysates may run through a third protein. Some binding calls cover weakened binding; strength is not graded here.

This assay has as its target Cyclin-dependent kinase-9 (CDK9) (human (endogenous in primary CD4+ T cells)) (UniProt P50750). Nature of the assay: co-IP; immunoprecipitation with anti-CDK9 antibodies/antiserum from extracts of resting CD4+ T cells cultured 48 h in DMSO or prostratin (250 ng/ml); lysis in EBCD buffer (50 mM Tris-HCl pH 8.0, 120 mM NaCl, 0.5% NP-40, 5 mM dithiothreitol) with protease and ribonuclease inhibitors; extract amounts adjusted to precipitate equivalent CDK9; immunoblot of the precipitates. Background: A western blot detects proteins with antibodies after separation by electrophoresis.

“HEXIM1 protein (from UniProt O94992 1-359)”: the binding entry was “binds”.
